For part of its entries the source gives two or more results. The list is limited to them. The source may hold further records. Values that stand side by side differ for a reason that is not stated; some may be repeats, others may stem from another dose, organism or construct than stated.
Molecular target: mu-opioid receptor (C6mu membranes) (Rattus norvegicus, UniProt P33535)
Assay: [35S]GTPγS binding in C6mu cell membranes
Type: biochemical
Settings: BMS-986122 10 uM + BMS-986124 50 uM

The chains behind the UniProt entries cited, without tags or fusion partners.
UniProt P33535, whole entry: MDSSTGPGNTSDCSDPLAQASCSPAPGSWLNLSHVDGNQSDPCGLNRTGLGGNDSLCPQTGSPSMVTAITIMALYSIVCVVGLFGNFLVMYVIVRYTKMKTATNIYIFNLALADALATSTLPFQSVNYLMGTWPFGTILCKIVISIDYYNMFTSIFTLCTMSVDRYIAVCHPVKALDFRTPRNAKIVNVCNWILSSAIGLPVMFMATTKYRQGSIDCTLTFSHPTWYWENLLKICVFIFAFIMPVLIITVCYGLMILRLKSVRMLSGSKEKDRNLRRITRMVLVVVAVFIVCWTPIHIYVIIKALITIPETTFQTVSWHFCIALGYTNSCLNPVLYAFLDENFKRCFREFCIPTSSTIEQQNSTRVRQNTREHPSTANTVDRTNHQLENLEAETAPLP

## COc1cc(Br)ccc1C1SCCN1S(=O)(=O)c1ccc(Cl)cc1 (stereo not shown)
  DAMGO potency enhancement vs vehicle with co-addition of BMS-986122 and BMS-986124: 2 fold and less than 2 fold

Reference: patent US9784740B2 (priority 2013, dated 2017)
